These are yes or no findings as the source states them, for the method shown. Binding seen in cells or lysates may run through a third protein. Where a sequence is shown, tags or fusion partners need not be part of it.

The test addresses adenine nucleotide translocase (ANT), neonatal rat cardiomyocyte mitochondria (rat). As to the kind of experiment: co-immunoprecipitation with anti-HA beads from NRVCM mitochondrial extract, immunoblot for ANT. Background: Immunoblotting shows a protein as a band on a membrane.

B1: αBC-AAE with an N-terminal HA tag (protein, not shown: small tags and cut ends)
chain: DIAIHHPWIRRPFFPFHAPSRLFDQFFGEHLLESDLFSTATSLAPFYLRPPSFLRAPEWIDTGLSEMRMEKDRFSVNLDVKHFSPEELKVKVLGDVIEVHGKHEERQDEHGFISREFHRKYRIPADVDPLTITSSLSSDGVLTVNGPRKQASGPERTIPITREEKPAVTAAPKK
With B1, the binding result is listed as “no binding”.
